The values below come from publication PMC12955895.

By UniProt entry, the sequences of proteins in these tests, tags left out.
UniProt P19474: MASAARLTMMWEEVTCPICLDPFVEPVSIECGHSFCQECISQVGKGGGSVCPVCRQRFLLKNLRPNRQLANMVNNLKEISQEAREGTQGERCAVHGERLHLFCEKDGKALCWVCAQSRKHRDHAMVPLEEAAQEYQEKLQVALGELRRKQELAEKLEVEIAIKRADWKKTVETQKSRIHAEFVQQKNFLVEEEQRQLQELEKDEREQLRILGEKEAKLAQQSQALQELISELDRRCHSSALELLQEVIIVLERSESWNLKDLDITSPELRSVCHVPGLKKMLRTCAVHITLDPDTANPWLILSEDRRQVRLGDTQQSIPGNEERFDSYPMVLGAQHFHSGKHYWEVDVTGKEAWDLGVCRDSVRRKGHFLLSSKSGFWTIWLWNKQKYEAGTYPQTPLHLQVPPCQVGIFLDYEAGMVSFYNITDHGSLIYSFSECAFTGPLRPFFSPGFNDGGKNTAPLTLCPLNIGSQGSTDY
UniProt P60842: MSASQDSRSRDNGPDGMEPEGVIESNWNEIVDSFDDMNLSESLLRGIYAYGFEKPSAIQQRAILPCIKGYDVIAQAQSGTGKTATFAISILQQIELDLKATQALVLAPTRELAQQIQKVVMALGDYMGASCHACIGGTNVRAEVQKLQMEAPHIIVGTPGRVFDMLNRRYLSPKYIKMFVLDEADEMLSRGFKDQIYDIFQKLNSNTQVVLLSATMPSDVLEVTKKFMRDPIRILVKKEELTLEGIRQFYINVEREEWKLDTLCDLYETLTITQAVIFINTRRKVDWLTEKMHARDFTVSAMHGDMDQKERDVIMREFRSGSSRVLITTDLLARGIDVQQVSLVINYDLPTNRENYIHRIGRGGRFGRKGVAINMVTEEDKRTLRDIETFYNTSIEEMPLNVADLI

This experiment concerns the target T1, TOPK, bait of the mass spectrometry identification of interaction proteins (UniProt Q96KB5).
T1 sequence: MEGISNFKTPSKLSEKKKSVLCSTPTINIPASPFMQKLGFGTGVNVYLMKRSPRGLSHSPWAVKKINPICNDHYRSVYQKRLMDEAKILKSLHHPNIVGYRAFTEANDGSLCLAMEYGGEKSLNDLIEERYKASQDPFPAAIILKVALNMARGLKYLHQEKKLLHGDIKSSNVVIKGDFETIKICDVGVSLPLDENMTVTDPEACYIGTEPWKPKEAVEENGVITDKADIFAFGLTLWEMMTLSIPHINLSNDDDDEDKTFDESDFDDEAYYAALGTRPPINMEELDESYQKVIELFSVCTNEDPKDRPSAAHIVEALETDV
Briefly: affinity purification with mass spectrometry; silver staining and mass spectrometry of TOPK interaction proteins; cells and bait construct not told.

No constants are given. Whether binding was seen depends on the method and setting. In cells and extracts the contact can be indirect. Here binding means that the protein was enriched with, or labelled near, the bait; the list need not be complete.

As to TRIM21 (from UniProt P19474 1-475), the binding entry is “binds”.

For “eIF4A1, endogenous (from UniProt P60842 1-406) (enzyme)”, the binding result is on record as “binds”.
